From patent US4686282A, “Immunotherapeutic polypeptide agents which block immune complex binding to immunoglobulin Fc receptors” (Immunetech, Inc., priority 1983, dated 1987)
Not every detail of the peptide structures is certain; ends, links or a residue may be inferred. Some entries repeat one wording, which the source may state once for all of them. Ends that are not written are not given here.

Experiments:
Conditions in all cases: Table 4; relative to intact monomeric myeloma protein at equal concentration
[1] = tested on: MONOCYTE/MACROPHAGE Fc Receptor IgG; test: Rosette inhibition, IgG-coated ox-erythrocytes on monocytes / U937; format: binding, human
[2] = tested on: BASOPHIL Fc Receptor IgG; test: Rosette inhibition, IgG-coated ox-erythrocytes on basophils; format: binding, human
[3] = tested on: LYMPHOCYTE Fc Receptor IgG; test: Rosette inhibition, IgG-coated ox-erythrocytes on lymphocyte lines RPMI-8866 and Daudi; format: binding, human
[4] = tested on: NEUTROPHIL (PMN) Fc Receptor IgG; test: Rosette inhibition, IgG-coated ox-erythrocytes on human PMNs; format: binding

In the case of “TRAEAEQKD [Thr--Arg--Ala--Glu--Ala--Glu--Gln--Lys--Asp]”, the “ROSETTE INHIBITION EXPRESSED AS PERCENT INHIBITION BY MONOMERIC IgG: MONOCYTE/MACROPHAGE Fc Receptor IgG” value [1] is reported as “NS (NS indicates inhibition not significantly different from 0)”, the “ROSETTE INHIBITION EXPRESSED AS PERCENT INHIBITION BY MONOMERIC IgG: BASOPHIL Fc Receptor IgG” value [2] is reported as “NS (NS indicates inhibition not significantly different from 0)” and the “ROSETTE INHIBITION EXPRESSED AS PERCENT INHIBITION BY MONOMERIC IgG: LYMPHOCYTE Fc Receptor IgG” value [3] is reported as “NS (NS indicates inhibition not significantly different from 0)”. For the same sequence, the “ROSETTE INHIBITION EXPRESSED AS PERCENT INHIBITION BY MONOMERIC IgG: NEUTROPHIL (PMN) Fc Receptor IgG” value [4] was “NS (NS indicates inhibition not significantly different from 0)”.
